Data taken from publication PMC7819943, “Rice protein-binding microarrays: a tool to detect cis-acting elements near promoter regions in rice”.
Some of the results follow.

The chains behind the UniProt entries cited, without tags or fusion partners.
UniProt Q0JBA9, entry or part of it: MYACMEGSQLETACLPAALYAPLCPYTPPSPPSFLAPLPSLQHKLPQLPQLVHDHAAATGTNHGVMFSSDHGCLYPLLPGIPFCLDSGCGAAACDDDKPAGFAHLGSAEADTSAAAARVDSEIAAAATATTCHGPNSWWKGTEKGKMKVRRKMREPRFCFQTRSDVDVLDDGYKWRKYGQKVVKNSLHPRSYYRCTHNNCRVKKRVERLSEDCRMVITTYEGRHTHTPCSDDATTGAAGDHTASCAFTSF

target: OsWRKY34 (Oryza sativa, UniProt Q0JBA9 1-250); test: protein-binding microarray (RPBM); PBS, 2% BSA, 51.3 ng/ul salmon testes DNA, 50 uM zinc acetate, 200 nM TF, 25 C, 1 h; high values mean tight binding; conditions: protein: recombinant; tags: N-terminal polyhistidine and DsRed monomer fusion (pET32a); label: CyDye5-dUTP incorporated in the synthesized complementary strand; 3' TTTTT single-stranded linker to array surface; dsDNA, one strand shown
Procedure, shortened: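 An Axon 4000B scanner gave the binding signal as per-feature fluorescence intensity in arbitrary units. This followed washing of a custom Agilent array that had been incubated for 1 h at 25 °C with 200 nM protein in PBS, 2% BSA, salmon testes DNA and 50 µM zinc acetate. The proteins were transcription factors fused at the N-terminus to polyhistidine and DsRed, expressed in E. coli BL21-CodonPlus and purified on Ni–NTA.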

Sequence	binding signal
ATTTTTCGGTGTTGGGTGTTGAGTGTTCCTAATTTCATAACGGAGTCACCTAGTGCAG	12600 fluorescence intensity (a.u.)
ACCGGGTTCCACATGTCATACACACATTACGTCTTGGAGTCGGAGTCACCTAGTGCAG	9420 fluorescence intensity (a.u.)
TATCGTGTTTGATCCGTGTCTCTGTTAGTCTCTGCCACGACGGAGTCACCTAGTGCAG	8070 fluorescence intensity (a.u.)
ACATAGTTTCCATCGGTTTTGATAGTTGGAGGGGTCGATACGGAGTCACCTAGTGCAG	12800 fluorescence intensity (a.u.)
GGGTGGGAGGGAGGGAGTACATGGTAAGGCCATTCAACAGCGGAGTCACCTAGTGCAG	20200 fluorescence intensity (a.u.)
AGAGATGCGTGTGTAGGCGGCGGGGAGGGGAGGGCTGTGACGGAGTCACCTAGTGCAG	17700 fluorescence intensity (a.u.)
CTTTCTCATTCTGAATCATCCACAGTATGTCAAATTCTCACGGAGTCACCTAGTGCAG	9000 fluorescence intensity (a.u.)
GATGCAGATCGGTACTGCTGAACAGCTGACCACACTTGCTCGGAGTCACCTAGTGCAG	9260 fluorescence intensity (a.u.)
GCCCTGACCTGAGAGATGTTTGTTCTTGTTGATTTTTGTGCGGAGTCACCTAGTGCAG	10000 fluorescence intensity (a.u.)
CGTCATATCAGCGTCCCGATACAAATACCCACTTGATATACGGAGTCACCTAGTGCAG	9620 fluorescence intensity (a.u.)
ACTCACTTCAAAATTTTCACATCCTCTCTCATCATTTTTTCGGAGTCACCTAGTGCAG	11100 fluorescence intensity (a.u.)
CATATCTTCTCTTCCATTCCTTTTTTCTTGTGGAGAGTATCGGAGTCACCTAGTGCAG	9850 fluorescence intensity (a.u.)
CCTGCTCTCTCTCTCGTCCTCTTTATATCTGCAATTCTGCCGGAGTCACCTAGTGCAG	10500 fluorescence intensity (a.u.)
CTTGTGTTGTCTTCCGGTGCTTCTTCCATAATACAAAAACCGGAGTCACCTAGTGCAG	9120 fluorescence intensity (a.u.)
TAATAGGATTAAACTCTAATTTTTCACATCCCTACTTCTTCGGAGTCACCTAGTGCAG	8600 fluorescence intensity (a.u.)
CATTTGCCGCGCCTTATCCACCTCACCAAAACCCCACTTCCGGAGTCACCTAGTGCAG	8290 fluorescence intensity (a.u.)
CTGATTCGAACGCAGCCATAGTCACTCTTTCACTCTCACTCGGAGTCACCTAGTGCAG	11000 fluorescence intensity (a.u.)
AACTTGAGGTCCTGGCATTGACCTTTCTAAATTTTGACTGCGGAGTCACCTAGTGCAG	8160 fluorescence intensity (a.u.)
TTTACATCCTGCGTTCAAGGCCCTTCGCGTTAATACTATCCGGAGTCACCTAGTGCAG	9550 fluorescence intensity (a.u.)
ATTTACTATGCAATGCAGGTACATTTGTTTTACTTCACAACGGAGTCACCTAGTGCAG	8660 fluorescence intensity (a.u.)
AGCTGGCCGCCTTCTTGTCCTTGCCGTCCTCGTTCACCAGCGGAGTCACCTAGTGCAG	8280 fluorescence intensity (a.u.)

For reference, part of the list above.
Sequence	binding signal
AGAGATGCGTGTGTAGGCGGCGGGGAGGGGAGGGCTGTGACGGAGTCACCTAGTGCAG	17700 fluorescence intensity (a.u.)
CTTTCTCATTCTGAATCATCCACAGTATGTCAAATTCTCACGGAGTCACCTAGTGCAG	9000 fluorescence intensity (a.u.)
GATGCAGATCGGTACTGCTGAACAGCTGACCACACTTGCTCGGAGTCACCTAGTGCAG	9260 fluorescence intensity (a.u.)

Next results

Sequence	binding signal
ACACCACACCAACTAGTCCAACCAATCCATCTATTTCTCTCGGAGTCACCTAGTGCAG	9910 fluorescence intensity (a.u.)
AATTTGGATTAATCCTTCGCGTCACATTTTCTACATCTCACGGAGTCACCTAGTGCAG	9980 fluorescence intensity (a.u.)
TTTGCCTATGTGGGTTTGAAATTTCTCATCAAATTGGTTCCGGAGTCACCTAGTGCAG	8780 fluorescence intensity (a.u.)
CTTTTTTACTGCGGTACATGTGTTCCCATGATGTTTCAATCGGAGTCACCTAGTGCAG	8240 fluorescence intensity (a.u.)
CCTCATGACCTACCGCCATCACTCGAGTCATTTAGCTTCTCGGAGTCACCTAGTGCAG	13600 fluorescence intensity (a.u.)
TATGCAGGTGTTGGGAGGAGGTGGCTTGATTTTTTCTGCTCGGAGTCACCTAGTGCAG	8530 fluorescence intensity (a.u.)
TTATCAATATCTCTCTCTCGGCGCGTATAGCCGTCGCGCGCGGAGTCACCTAGTGCAG	8690 fluorescence intensity (a.u.)
CATTTTATATAATTTTGACTATTTGCTAATCTTGTCTATACGGAGTCACCTAGTGCAG	9240 fluorescence intensity (a.u.)
CTCTTCCTCTCTCTATCTGTTCGTGGCTGGATCGGACGGACGGAGTCACCTAGTGCAG	8290 fluorescence intensity (a.u.)
AGGAGTACTCAGCTTTCTTTCTGCATGCTCTGTTTCTTCGCGGAGTCACCTAGTGCAG	9460 fluorescence intensity (a.u.)
AAATCCGCCGCCGAATTCCCCACCCGTCGCGTCCAAAATCCGGAGTCACCTAGTGCAG	8950 fluorescence intensity (a.u.)
GAAGTCAGCCCTCATGATGTGGATCCGTTTTGCATTGTAACGGAGTCACCTAGTGCAG	8310 fluorescence intensity (a.u.)
GTCGTCTCGTCTTCGTTATCTCCTCCCTGTGTCGCGGCGGCGGAGTCACCTAGTGCAG	9570 fluorescence intensity (a.u.)
TATATATATATATATATATATATATATATAACTACAATAGCGGAGTCACCTAGTGCAG	10200 fluorescence intensity (a.u.)
TGGATATGATATTCTTCCTTGGCTTATCCGTTCAGTTGCCCGGAGTCACCTAGTGCAG	9020 fluorescence intensity (a.u.)
CACTGTGTGCTACTCCAACTGCTAACCAAGCCACACCTTACGGAGTCACCTAGTGCAG	8250 fluorescence intensity (a.u.)
CTCCTCGCCCCGCATCAGCTTCGTCCGTCGCGGGCTCGCGCGGAGTCACCTAGTGCAG	9720 fluorescence intensity (a.u.)
TGTGATGCACTTCTCTCCAGTAATCTAGTGGTAATTTTCACGGAGTCACCTAGTGCAG	8020 fluorescence intensity (a.u.)
GGTGTGTTTTCTTGCATGACGGGTGTGTTTTCTCCTTAAACGGAGTCACCTAGTGCAG	11600 fluorescence intensity (a.u.)
GATTATCAGTGAAGCTTTTACCAAGATTGTGAAAATTTTCCGGAGTCACCTAGTGCAG	8200 fluorescence intensity (a.u.)
TTATCTTAATCTTGTCATCAATTCGTTTGTCTAAACTTCCCGGAGTCACCTAGTGCAG	11400 fluorescence intensity (a.u.)

Sequence	binding signal
TCTTTACCACTTCTTCTTAACTTCTACTCTATTGTTTTTTCGGAGTCACCTAGTGCAG	9670 fluorescence intensity (a.u.)
AACCTAAGCGCTTTTCCCTTTCGGGAAATTCCGCGCGCTCCGGAGTCACCTAGTGCAG	8060 fluorescence intensity (a.u.)
GGTGGTGCGGCCTCTCTCGCCTTTGATTTACCCTTTCGCGCGGAGTCACCTAGTGCAG	9720 fluorescence intensity (a.u.)
AAAATTTTTTTTGTCGGAATATATCCATGTGTGGTCTTGTCGGAGTCACCTAGTGCAG	8220 fluorescence intensity (a.u.)
CATCATTCGTCGTCAGGTTCTTCCGCCATTGGAGCTCCATCGGAGTCACCTAGTGCAG	9290 fluorescence intensity (a.u.)
CACGCTCCCTATTTTAGTACCACCTCGCGAACCGGAACGCCGGAGTCACCTAGTGCAG	9160 fluorescence intensity (a.u.)
TTAGTAATTACTCCACTGCGCCATCGATTACAATAATTTTCGGAGTCACCTAGTGCAG	11300 fluorescence intensity (a.u.)
GACCTGATCAACACCAGACGGGTTAACTACGTCTACATTTCGGAGTCACCTAGTGCAG	8210 fluorescence intensity (a.u.)
ATAGCAGCTCATCTCCATCTTCTTGCAAACCATCAGTAGTCGGAGTCACCTAGTGCAG	9370 fluorescence intensity (a.u.)
CACTCTTTTTGTTCTTCTACCTTTTCCTTTTGCTCTTCCCCGGAGTCACCTAGTGCAG	9130 fluorescence intensity (a.u.)
CCTCTTATAGCCCACCGCCACCGGCCGCCGCGCGCCCATGCGGAGTCACCTAGTGCAG	8050 fluorescence intensity (a.u.)
CTCTCTCTAGCTCTAGCTCTAGCTCGTCGCCGCCATGAACCGGAGTCACCTAGTGCAG	8320 fluorescence intensity (a.u.)
GATTTCCCCTTCTCTGCTGCAACCTGCATTGTTCTTTCCTCGGAGTCACCTAGTGCAG	10000 fluorescence intensity (a.u.)
CTCTCTCCGTGCAGTCATGATTTTCCGTACCTAACTTTTACGGAGTCACCTAGTGCAG	9610 fluorescence intensity (a.u.)
AATCGCACCCACCTGCCAAGTTCTTGTACCGCCAACGCAACGGAGTCACCTAGTGCAG	8560 fluorescence intensity (a.u.)
TGAGCCATGTTCCCGATCCACGGCTTACCTAACCTCGCTTCGGAGTCACCTAGTGCAG	8040 fluorescence intensity (a.u.)
GCCGCCGCCCTCCCCAACTCCGGCGACGACTATTCCCAAGCGGAGTCACCTAGTGCAG	8540 fluorescence intensity (a.u.)
CCACCACACGTCCGGAAAGTCTTTTTAGCACCTAGGCTGCCGGAGTCACCTAGTGCAG	8430 fluorescence intensity (a.u.)
CGGTCAAACATGTGCTAAAAAGTCAACGGTGTCAAATATTCGGAGTCACCTAGTGCAG	11400 fluorescence intensity (a.u.)
ACGCCCCGGATCTGAGAGAGTTGAGGTACATAGTTTTTTCCGGAGTCACCTAGTGCAG	8330 fluorescence intensity (a.u.)
TTTTTTTCCCACTATGTTTCCTGTTAAATGGATAGCACTACGGAGTCACCTAGTGCAG	8250 fluorescence intensity (a.u.)

Sequence	binding signal
AGCTCCGCCACCGCTTCATCTCGCACCCGCACCGCGCGCTCGGAGTCACCTAGTGCAG	9900 fluorescence intensity (a.u.)
GCTCCGGCTCCACCCGCCGGCGCCGCTGCTCCTGCCGCGGCGGAGTCACCTAGTGCAG	9760 fluorescence intensity (a.u.)
GTATACTGGTAGACACAGACTTTACACCGATTTTTTTCCTCGGAGTCACCTAGTGCAG	8560 fluorescence intensity (a.u.)
TGCCATACATATATAGTCGTAGTTCTTTTCTTTTTTTTAACGGAGTCACCTAGTGCAG	10900 fluorescence intensity (a.u.)
CCACCCGTTTATTGCATGTCATCTAAATGTTTTATGAAAACGGAGTCACCTAGTGCAG	10400 fluorescence intensity (a.u.)
ATCTTTCCTCTTTTTTTGTCTTTACAGAATGGCCATGTGGCGGAGTCACCTAGTGCAG	8240 fluorescence intensity (a.u.)
TCTTTCATACGGAATTCCTTTTCATTATTGGATGCCAGCTCGGAGTCACCTAGTGCAG	9330 fluorescence intensity (a.u.)
GTCTAAGGTTGTTTGAAAATTTCAAAAATTTAAAGTTTTTCGGAGTCACCTAGTGCAG	8100 fluorescence intensity (a.u.)
TGTGGCTGGGGTGGGAGTGGGAGCAGCCATAGATTTCCTCCGGAGTCACCTAGTGCAG	8930 fluorescence intensity (a.u.)
TGGTTTGCGCCGCCCGTCCGCCGCCGCCGGCGGCCGTACTCGGAGTCACCTAGTGCAG	9880 fluorescence intensity (a.u.)
GGGGATGGCGGCGGCCTCGGGAGGGGATGACGGTGGTCTCCGGAGTCACCTAGTGCAG	9080 fluorescence intensity (a.u.)
CTAATTGTTTTTTTAAATAGTGTTTTGTTTTATTGAAAACCGGAGTCACCTAGTGCAG	9040 fluorescence intensity (a.u.)
GTGGGCGGTGGGCAGCAAGAGAGGAGTTGGACAACGGTGACGGAGTCACCTAGTGCAG	9720 fluorescence intensity (a.u.)
CATCTTCGTGCGAGTTATTCTCATAGCCAATTTTCTCCTTCGGAGTCACCTAGTGCAG	8160 fluorescence intensity (a.u.)
AGTCATCTTTTTGCTTATGCTTATACTTATCAGCCAAAATCGGAGTCACCTAGTGCAG	8940 fluorescence intensity (a.u.)
GAGTTGTTTTTCCCCTCTGAATTTTCTTGGTTTGGATTTCCGGAGTCACCTAGTGCAG	8080 fluorescence intensity (a.u.)
TCTCCTTCCCCGCCGCCGCCGCTCGCCGCCCGCCCGCCCGCGGAGTCACCTAGTGCAG	8440 fluorescence intensity (a.u.)
TTTACAAACTTTCAACTTGTCATCACATCAAATCTTTCATCGGAGTCACCTAGTGCAG	8940 fluorescence intensity (a.u.)
TGCAGCCCCAGTAATGCTCTCTCAACCATGATTTGCCGCTCGGAGTCACCTAGTGCAG	11400 fluorescence intensity (a.u.)
CCGCCATTCCCGATCAAATCCTCTCCTCGATCTCTCCTGCCGGAGTCACCTAGTGCAG	11800 fluorescence intensity (a.u.)
TCGCCGCCACCAACATCACGCTCTTCCACCTCGACGTCGGCGGAGTCACCTAGTGCAG	8600 fluorescence intensity (a.u.)

2 records drawn at random from the list so far:
Sequence	binding signal
CATTTGCCGCGCCTTATCCACCTCACCAAAACCCCACTTCCGGAGTCACCTAGTGCAG	8290 fluorescence intensity (a.u.)
GAGTTGTTTTTCCCCTCTGAATTTTCTTGGTTTGGATTTCCGGAGTCACCTAGTGCAG	8080 fluorescence intensity (a.u.)
